{"source": "paper PMC4434891", "about": "“The Smc5-Smc6 heterodimer associates with DNA through several independent binding domains” (Scientific Reports, 2015)", "test_in_all_cases": "pull-down + SEC; sequential co-purification from bacterial lysate by the tag of each subunit: Ni-NTA (His9 on Smc5), then Strep-Tactin (Strep-TagII on Smc6), then Superose 6 or 12 in buffer C (25 mM potassium phosphate pH 8.0, 500 mM NaCl, 10% glycerol, 0.2% Tween 20, 2 mM 2-ME, 1 mM EDTA); fragments overexpressed in combination or individually", "key": {"[1]": {"target": "T1, Smc5 HS (hinge short; Smc5 residues 428-to-675) (UniProt Q08204)", "T1 sequence": "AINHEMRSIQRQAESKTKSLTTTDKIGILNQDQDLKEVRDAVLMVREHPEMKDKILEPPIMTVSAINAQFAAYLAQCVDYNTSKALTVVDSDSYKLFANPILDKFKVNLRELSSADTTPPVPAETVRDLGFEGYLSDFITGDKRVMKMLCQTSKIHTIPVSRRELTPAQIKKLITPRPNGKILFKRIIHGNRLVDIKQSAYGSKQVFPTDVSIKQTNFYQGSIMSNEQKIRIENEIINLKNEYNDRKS"}, "[2]": {"target": "T2, Smc5 HM (hinge medium; Smc5 residues 300-to-803) (UniProt Q08204)", "T2 sequence": "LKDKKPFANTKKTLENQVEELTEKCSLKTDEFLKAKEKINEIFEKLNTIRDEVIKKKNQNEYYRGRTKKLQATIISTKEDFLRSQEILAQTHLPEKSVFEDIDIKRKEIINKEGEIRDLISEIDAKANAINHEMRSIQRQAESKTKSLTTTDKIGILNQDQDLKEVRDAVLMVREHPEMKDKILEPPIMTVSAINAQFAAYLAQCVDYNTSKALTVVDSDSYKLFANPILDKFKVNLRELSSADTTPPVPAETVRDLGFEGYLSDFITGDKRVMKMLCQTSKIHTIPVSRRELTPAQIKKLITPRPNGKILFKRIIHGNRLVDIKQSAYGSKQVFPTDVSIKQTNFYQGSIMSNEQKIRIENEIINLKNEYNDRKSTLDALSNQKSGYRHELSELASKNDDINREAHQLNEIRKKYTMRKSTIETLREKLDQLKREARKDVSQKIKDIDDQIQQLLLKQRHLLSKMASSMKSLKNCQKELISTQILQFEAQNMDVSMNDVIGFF"}, "[3]": {"target": "T3, Smc5 HL (hinge long; Smc5 residues 215-to-885) (UniProt Q08204)", "T3 sequence": "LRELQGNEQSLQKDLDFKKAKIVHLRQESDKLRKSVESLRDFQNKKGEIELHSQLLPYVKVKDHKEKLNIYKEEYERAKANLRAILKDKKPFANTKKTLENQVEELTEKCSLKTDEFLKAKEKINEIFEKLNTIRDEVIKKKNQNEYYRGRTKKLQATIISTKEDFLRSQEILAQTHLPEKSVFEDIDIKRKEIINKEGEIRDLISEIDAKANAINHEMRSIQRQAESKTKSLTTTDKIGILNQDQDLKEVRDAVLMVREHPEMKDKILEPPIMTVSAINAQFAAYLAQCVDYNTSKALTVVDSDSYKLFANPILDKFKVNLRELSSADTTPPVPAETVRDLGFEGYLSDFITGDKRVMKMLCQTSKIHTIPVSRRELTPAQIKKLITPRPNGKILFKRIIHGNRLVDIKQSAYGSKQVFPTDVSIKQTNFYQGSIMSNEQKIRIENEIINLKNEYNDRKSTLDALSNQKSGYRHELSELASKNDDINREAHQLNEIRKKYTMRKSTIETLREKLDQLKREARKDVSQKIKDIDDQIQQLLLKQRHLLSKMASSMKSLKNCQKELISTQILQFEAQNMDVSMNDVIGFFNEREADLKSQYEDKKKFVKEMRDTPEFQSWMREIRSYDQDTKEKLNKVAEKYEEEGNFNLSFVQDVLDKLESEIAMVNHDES"}}, "note": "No constants are given. Whether binding was seen depends on the method and setting. Binding seen in cells or lysates may run through a third protein. Some binding calls cover weakened binding; strength is not graded here."}
{"binder": "Smc6 HS (hinge short; Smc6 residues 486-to-732) (domain or fragment, UniProt Q12749 486-732) SRSIQNKKVELQNIAKGNDTFLMNFDRNMDRLLRTIEQRKNEFETPAIGPLGSLVTIRKGFEKWTRSIQRAISSSLNAFVVSNPKDNRLFRDIMRSCGIRSNIPIVTYCLSQFDYSKGRAHGNYPTIVDALEFSKPEIECLFVDLSRIERIVLIEDKNEARNFLQRNPVNVNMALSLRDRRSGFQLSGGYRLDTVTYQDKIRLKVNSSSDNGTQYLKDLIEQETKELQNIRDRYEEKLSEVRSRLKE", "values": [{"measurement": "binding", "setting": "[1]", "result": "binds"}]}
{"binder": "Smc6 HM (hinge medium; Smc6 residues 350-to-868) (domain or fragment, UniProt Q12749 350-868) KIERYTSDGTTIEAQIDAKVIYVNEKDSEHQNARELLRDVKSRFEKEKSNQAEAQSNIDQGRKKVDALNKTIAHLEEELTKEMGGDKDQMRQELEQLEKANEKLREVNNSLVVSLQDVKNEERDIQHERESELRTISRSIQNKKVELQNIAKGNDTFLMNFDRNMDRLLRTIEQRKNEFETPAIGPLGSLVTIRKGFEKWTRSIQRAISSSLNAFVVSNPKDNRLFRDIMRSCGIRSNIPIVTYCLSQFDYSKGRAHGNYPTIVDALEFSKPEIECLFVDLSRIERIVLIEDKNEARNFLQRNPVNVNMALSLRDRRSGFQLSGGYRLDTVTYQDKIRLKVNSSSDNGTQYLKDLIEQETKELQNIRDRYEEKLSEVRSRLKEIDGRLKSTKNEMRKTNFRMTELKMNVGKVVDTGILNSKINERKNQEQAIASYEAAKEELGLKIEQIAQEAQPIKEQYDSTKLALVEAQDELQQLKEDINSRQSKIQKYKDDTIYYEDKKKVYLENIKKIEVNVAAL", "values": [{"measurement": "binding", "setting": "[2]", "result": "binds"}]}
{"binder": "Smc6 HL (hinge long; Smc6 residues 260-to-970) (domain or fragment, UniProt Q12749 260-970) SAIHDSAQENMALHLENLKSLKAEYEDAKKLLRELNQTSDLNERKMLLQAKSLWIDVAHNTDACKNLENEISGIQQKVDEVTEKIRNRQEKIERYTSDGTTIEAQIDAKVIYVNEKDSEHQNARELLRDVKSRFEKEKSNQAEAQSNIDQGRKKVDALNKTIAHLEEELTKEMGGDKDQMRQELEQLEKANEKLREVNNSLVVSLQDVKNEERDIQHERESELRTISRSIQNKKVELQNIAKGNDTFLMNFDRNMDRLLRTIEQRKNEFETPAIGPLGSLVTIRKGFEKWTRSIQRAISSSLNAFVVSNPKDNRLFRDIMRSCGIRSNIPIVTYCLSQFDYSKGRAHGNYPTIVDALEFSKPEIECLFVDLSRIERIVLIEDKNEARNFLQRNPVNVNMALSLRDRRSGFQLSGGYRLDTVTYQDKIRLKVNSSSDNGTQYLKDLIEQETKELQNIRDRYEEKLSEVRSRLKEIDGRLKSTKNEMRKTNFRMTELKMNVGKVVDTGILNSKINERKNQEQAIASYEAAKEELGLKIEQIAQEAQPIKEQYDSTKLALVEAQDELQQLKEDINSRQSKIQKYKDDTIYYEDKKKVYLENIKKIEVNVAALKEGIQRQIQNACAFCSKERIENVDLPDTQEEIKRELDKVSRMIQKAEKSLGLSQEEVIALFEKCRNKYKEGQKKYMEIDEALNRLHNSLKARDQNYKNAEKG", "values": [{"measurement": "binding", "setting": "[3]", "result": "binds"}]}
